The values that follow come from PMC7021683, “RNA sequence and length contribute to RNA-induced conformational change of TLS/FUS”.

Residue numbers refer to the chain shown, from its start. Construct, isoform or probe ends are uncertain for at least one entry. For some assays here: A weaker result is weaker than the reference pair of the same experiment. At least one verdict rests on a figure or table, not on a statement of the authors. Where a protein sequence is shown, tags need not be part of it.

What all share (assay): FRET
The target of data set [1] is T1, MBP-BFP-TLS-GFP-6xHis (TLS/FUS) (UniProt P35637).
T1 sequence (looked up, limits assumed): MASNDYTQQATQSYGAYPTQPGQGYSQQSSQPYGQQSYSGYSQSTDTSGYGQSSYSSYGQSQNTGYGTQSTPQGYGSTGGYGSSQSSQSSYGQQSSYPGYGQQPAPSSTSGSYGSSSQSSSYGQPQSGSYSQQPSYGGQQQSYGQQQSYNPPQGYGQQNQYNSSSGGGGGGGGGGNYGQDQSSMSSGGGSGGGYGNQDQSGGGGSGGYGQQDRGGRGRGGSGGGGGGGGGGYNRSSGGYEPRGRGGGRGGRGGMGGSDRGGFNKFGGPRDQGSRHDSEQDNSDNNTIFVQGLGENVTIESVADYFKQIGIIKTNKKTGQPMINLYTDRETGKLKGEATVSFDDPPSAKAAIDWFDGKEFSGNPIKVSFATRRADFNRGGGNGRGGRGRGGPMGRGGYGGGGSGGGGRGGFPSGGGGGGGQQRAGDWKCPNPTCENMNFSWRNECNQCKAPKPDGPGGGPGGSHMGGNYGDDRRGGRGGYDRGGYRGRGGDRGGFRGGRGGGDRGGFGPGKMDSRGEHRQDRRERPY
The note with it: recombinant protein; protein details: N-term MBP, TagBFP, C-term TagGFP2, 6xHis.

A further data set has as its target T2, TLS K510R (UniProt P35637).
T2 sequence (looked up, limits assumed): T1 sequence (looked up, limits assumed) with K510R
Particulars: recombinant protein.

The next data set deals with T3, TLS P525L (UniProt P35637).
T3 sequence (looked up, limits assumed): T1 sequence (looked up, limits assumed) with P525L
Particulars: recombinant protein.

GGUUUGAUGA [R10]: in data set [1], the binding result was “binds more weakly”.
Consider AAGGGU [R6 mutant AAGGGU], for which the binding result in data set [1] is “binds more weakly”.
Same read-out and setting: as for GAGAGU [R6 mutant GAGAGU], the entry is “binds more weakly”; as for UUUUUUUUUUUUUUUUUUUUUUUUUUUUUUU [U31], “binds”.
With GUUAAGA [R7], the binding result in data set [1] is “binds more weakly”.
The same measure, in the same setting: as for UUUUUUUUUUUUU [U13], the entry is “binds more weakly”.
Consider “GUUAAGAGGGUACGGUGGUUUGAUGACACUG [R31 (pncRNA D1-1)]”, for which the binding result in the data set with TLS K510R and with TLS P525L was “binds” throughout.
